{
  "source": "paper PMC6531819",
  "key": {"[1]": {"target": "T1, GST-IbABF4 (Ipomoea batatas (cv. Xushu 18)) (UniProt A0A4Y5QRS9)", "T1 sequence (looked up)": "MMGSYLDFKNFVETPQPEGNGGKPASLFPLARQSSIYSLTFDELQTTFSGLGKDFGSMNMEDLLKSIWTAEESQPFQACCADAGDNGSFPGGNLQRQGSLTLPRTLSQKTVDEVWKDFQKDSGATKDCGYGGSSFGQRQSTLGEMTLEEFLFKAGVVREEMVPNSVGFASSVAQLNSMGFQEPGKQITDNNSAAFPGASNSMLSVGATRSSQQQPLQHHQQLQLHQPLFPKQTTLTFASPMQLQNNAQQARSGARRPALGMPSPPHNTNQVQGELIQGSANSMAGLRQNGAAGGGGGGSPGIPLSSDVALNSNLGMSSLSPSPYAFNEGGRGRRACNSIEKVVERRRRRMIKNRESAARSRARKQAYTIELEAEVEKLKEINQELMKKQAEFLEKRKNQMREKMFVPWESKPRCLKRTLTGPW", "test": "EMSA", "settings": "5 and 10 ug protein, shift increases with protein, self-competition by unlabeled probe abolishes binding; 200 mM HEPES (pH not stated), 5 mM DTT, 1 mM EDTA, 50 mM KCl, 20 pmol poly dI-dC, 30 uL, room temperature 30 min; 8% native PAGE; recombinant protein; residues 1-423"}, "[2]": {"system": "GST", "test": "EMSA", "settings": "200 mM HEPES (pH not stated), 5 mM DTT, 1 mM EDTA, 50 mM KCl, 20 pmol poly dI-dC, 30 uL, room temperature 30 min; 8% native PAGE; recombinant protein; protein details: GST"}},
  "note": "The exact form of at least one protein or probe is not confirmed. For some assays here: No signal at the amounts used counts as a negative. For some assays here: Where a protein sequence is shown, tags need not be part of it.",
  "data": [
    {"sequence": "GGACAGCTGGCGGGACACGTGGCGGGACACGTGGCG (double strand) [ABRE probe (ABRE repeat motif)]", "values": [
      {"measurement": "binding result", "setting": "[1]", "value": "binds"},
      {"measurement": "binding result", "setting": "[2]", "value": "no binding"}
    ]}
  ]
}
